The values that follow come from US20020127594A1 (Takeda / Millennium, published 2002).

For experiment [1], the target named is p185 (erbB2), 185 kDa receptor-type tyrosine kinase of the EGFR family, in MDA-MB453 breast adenocarcinoma cells (UniProt P04626). The experiment is described as follows: inferred from p185 phosphorylation assay in MDA-MB453 cells (10% conditioned medium, 15 min, antiphosphotyrosine Western blot). For orientation: Immunoblotting shows a protein as a band on a membrane.

The target is the same in experiment [2]. The experiment is described as follows: inferred from p185 phosphorylation assay in MDA-MB453 cells (conditioned medium, antiphosphotyrosine Western blot).

These are yes or no findings as the source states them, for the method shown. Some results given as binding are weak or reduced against the parent protein; the word gives no strength. Tags and fused reporters may be left off the sequences shown.

B1: Don-1 EGF domain-containing fusion polypeptide (EGF domain and flanking amino acids 85-154 of murine Don-1, C-terminal Flag epitope tag), secreted by … (ligand, not shown: small tags and cut ends)
chain: LHVNSVSTTLSSWSGHARKCNETAKSYCVNGGVCYYIEGINQLSCKCPNGFFGQRCLEKLPLRLYMPDPK
On to B1, for which the binding result in experiment [1] and in experiment [2] was “binds” each time.
